{"source": "patent US9475843B2", "about": "(Zhejiang University, priority 2015, dated 2016)", "assay": "peptide synthesis", "conditions": "whole synthesis", "note": "HELM strings list residues between dots; [ac] is acetyl, [am] amide, other brackets name non-standard units.", "data": [{"substance": "PEPTIDE1{V.K.F.F.R.K.L.K.K.S.V.K.E.K.I.G.K.E.F.K.R}$$$$V2.0", "values": [{"measurement": "final HPLC purity", "result": "higher than 95%"}]}]}
